For at least one entry, the source does not settle the construct or the ends of the probe. For some assays here: A negative result means that nothing was seen under these conditions. For some assays here: Tags and fusion partners may be left off the protein sequences shown. For some assays here: A weaker result is weaker than the reference pair of the same experiment.

Series [1] relates to T1, His6-SAV4189 (Streptomyces avermitilis).
T1 sequence (looked up, limits assumed): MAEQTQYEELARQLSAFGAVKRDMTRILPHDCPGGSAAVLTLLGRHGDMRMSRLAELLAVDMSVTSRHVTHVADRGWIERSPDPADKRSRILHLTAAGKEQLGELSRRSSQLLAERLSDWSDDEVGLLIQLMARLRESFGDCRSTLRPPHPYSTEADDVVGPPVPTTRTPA
The experiment in a line: EMSA. Particulars: EMSA as in Luo et al. 2014 (buffer not given), 0.15-0.3 nM DIG probe, footprinting 400 ng probe in 25 ul, 30 min at 25 C, recombinant protein, protein details: His6 (pET-28a), label: DIG 3' end.

Series [2] has the same test system. The experiment in a line: competition with a labelled probe. The settings on record: 50- and 150-fold competitor, differences slight; EMSA as in Luo et al. 2014 (buffer not given), 0.15-0.3 nM DIG probe; footprinting 400 ng probe in 25 ul, 30 min at 25 C; recombinant protein; protein details: His6 (pET-28a); label: DIG 3' end, unlabeled as competitor.
Series [3] has the same test system. The experiment in a line: DNase I footprinting. The settings on record: sites A and B protected; recombinant protein; protein details: His6 (pET-28a); label: 5' FAM; probe letters rebuilt from the primers and the genome.
[4] abbreviates: 200, 400 nM protein, probe letters rebuilt from the primers and the genome.
[5] abbreviates: 62.5-250 nM protein, unlabeled as competitor.

Regarding “AAGTCCTCGCCTTCTCCAGGACTCAGGCGGTGAACCGGATCCTCCCCGGCACCGCGGTGATGGTGAAGCTGGGGTCGTGCATGAGGGATTCAGTGGGACGGCACGGCAGTCACGCGTGCTCCGAACGGTCCGCCGCCTCCCGATTCCCCCCGGGTCCTGCCTGTCCACAGCCGTCGAACGACTAGGCGGACGCCGACAGGTATAGTCCACTTCTTGCCAGCGGAGCAACATCGAACGCACG (double strand) [ngcEp]”, the binding result in series [1] (setting [4]) was “no binding”. “CACGTACGCCACCTGGTGGATGGTTGCCCTAAGCAACGAAGCCATGGCCGACCAGGCCC (double strand) [Probe B2]”: the binding result in series [2] and in series [1] (setting [5]) was “binds” in each case. For the sequence “CACGTACGCCACCTGGTGGTAGTTTGCCTGCGGCAACCAAGCCATGGCCGACCAGGCCC (double strand) [Probe B1]”, the results for the binding result in series [2] and in series [1] (setting [5]) were “binds more weakly” and “binds”, respectively. Turning to “CATCACACCTCCCGTATTCGTTGCTTAGGGCAACCATAGGAAAGTTGGTTGCCGCAGGCAAACTAAATAGGGTCTTCAGGGATAAAAACTTGGCAAAGGCAAGTATTGGCAGGCGTAAAGCCGCAGGTGGGGAGGTCAGGAGCGGTCG (double strand) [4189p]”, the binding result in series [1] (hygromycin B, dose-dependent disruption, 62.5 nM protein, probe letters rebuilt from the primers and the genome) is listed as “binds more weakly”; in series [1] (thiostrepton (in DMSO), dose-dependent disruption, 62.5 nM protein, probe letters rebuilt from the primers and the genome) it was “binds more weakly”. Take “CTGGTCACCGACATGTCCACGGCGAGCAGCTCGGCGAGCCTGCTCATCCGCATGTCGCCGTGGCGGCCGAGCAGCGTGAGCACGGCGGCCGAGCCGCCGGGACAGTCGTGCGGCAGGATCCGCGTCATGTCCCGCTTCACGGCACCGAAGGCGCTGAGCTGACGGGCCAGTTCCTCGTACTGCGTCTGCTCGGCCATCACACCTCCCGTATTCGTTGCTTAGGGCAACCATAGGAAAGTTGGTTGCCGCAGGCAAACTAAATAGGGTCTTCAGGGATAAAAACTTGGCAAAGGCAAGTATTGGCAGGCGTAAAGCCGCAGGTGGGGAGGTCAGGAGCGGTCGATCGACGCCCTGCCCGTCCCGTGGCCGAGGGCGAGGACGTCCGGCCCGGCAGGGGCCCCACTTGGGTAGTCCCCGCGTATTCGCTAGGGTCCTGGGCCATGGCTAACACCCAGGGCCCCGAGGGCAACTACGACCCCGCCGGCAGCACCCAGATGTTCCGTGCCTTCGT (double strand) [sav_4188-sav_4189 intergenic footprint probe]”: the binding result in series [3] was “binds”. Turning to “GACGATCTCACCCGCACCGGGTGCGGGGGGTGGGCCGGAGGTGCGCCCGGGACCCGTGAGGTCCGTACGGCGGGCGGTGAGTTGGGTTGTGCGGTCCACTCAGGTCTCCCCGAAGACGTCCGGCCAGGCGGTTCGGCAGTAGCTACCGTAGGGTTACGTCTATTTAACACGCAAAACTCAATATGTAATGCAGAGTTGGTGAACGCAAGAGGGTGTGCATGAACGGAAGG (double strand) [5653p]”, in series [1] (setting [4]), the binding result was “binds”. As to “GCATCGGATTCCTGTGTGAACGGGCGACAGCGGCCTGACCCGAGGGCGGTTGAGGGGGCGCCGACCGCAGGCCGCGCGCGTCCTCCGCCCCAACTCATCCTGCGCGTACGTGTCCTGACGGCGCGTCAGGATGGTGTCCCGATTGGATCAAGCGGAAACGCATTGTTTCCCCAGGTGTAAATTGAATCCTTAAACAGTTCCCTTTCATATAATCAAAATTCACGCTGGGCAAAAGGGTTGGATTCGGCACTTGAGTGTGAATAGCCACGATTCGTACTCGCCGGTAGATGGCTCGTTTAGGAC (double strand) [pks1-3p]”, the binding result in series [1] (setting [4]) was “binds”. Turning to “GCCTGGTCCTCCGAACTCCCCATAGGCCAGGCCGCCTTCGCGCCGCCGTCCCTCTGGACCCTTGCTCGCGGGTGCGGCGATGGCCTTCTCCTCCGGCTCGGGCGGTCAATCCGCCCGAGCCGTTTCCGCGGTCACCGCACCGCCATACATACCGGTCACCCGGTATTCCATTCGGTGTTGCAGCACGCGACCCACTGCGCATCCCACTCGTGAATTGTGGACCGCCATCCGGGGCACGGATGTCTCCAGGAAGGAACTCCTTCACCCTCGCGAACACCACCTCAGAATCCCACGATCATCAGTTAATCATCAAAGTCAGCGACCTTGACACTACCCCGCCCACCAGGGCAAATTCATAACACTGACCATCACCTCTGATGCTGATCAACCCAGCCCGCACGGCCGCGACCGCTTTTGCTCAAGCAATCGAAATCCCCGAGACACGCTTTCTTGGAAAAAGGAGAAATAAGAACATCATGCAGGGAGTTTCCTGTCTGCACC (double strand) [aveRp]”, the binding result in series [1] (125 and 250 nM protein, probe letters rebuilt from the primers and the genome) is on record as “no binding”. For “GTACGCCACCTGGTGGTGCCAATACTTGCCTTTGCCAAGTTTTGCCATGGCCGACCAGG (double strand) [Probe A]”, the binding result in series [2] and in series [1] (setting [5]) was “binds” each time. On to “GTACGTGCTCCATTCCAGGATCTTGCCGTACGCGGGTGTCGTGCCGGTAGCGCTTTCCCTGTACGAGGGCTTGCCCGAACGAAGAAACGGGCCCGGGCCACTCGAAACCGAGTGGCCCGGGCCCGCACGCGCGCGTGGAGCGCGAAAACGACATCGCCGCCCTGAAGGCGTACGAAAACGTCAGTCCTTCG (double strand) [add4p]”, for which the binding result in series [1] (setting [4]) is “no binding”. “TCTTGCGTGCGTGTCCCACGGGTCACTCCTCACTTTTGTCAGTGCAAAGTGACCCGACGGTAACCGCAGCTCCTTACCTTAAGTAACCCGTCGGTAAGTTACGTGCCAGTAACGATTGTTGGAATGGCCTGAAACCTAGGAGGCGCGGTGCGAGTTGCGGGGAGCCACGACCGGCGCCGGGGTCTGCGCGGCCCGGGTGACGTCCGCGACGAGTTCGACGACATC (double strand) [1959p]”: in series [1] (setting [4]), the binding result is “binds”. In the case of “TGCCATACGTTGAATATGTCCGGGCGGCCGGCGTGCAGAGACCTTTCGTACGCCGGCTGTCCCCGCAAGCCAATGGCGAGCGCGCCCGGACGCCTGCGTCACAGGCACCCTCCTGCGCCACAAAGCGCTGCCACAGCACCACCTCCGCCGAACCGACGGCACCCCTCACACCAGCAGCAGCACCGACGTAACCCTCAGCGTCTCCCCTCAAGACGCCACTTCGCCGGAGGCAACACCGTGAAGGAAATCCTGGACG (double strand) [ccrA2p]”, the binding result in series [1] (setting [4]) is recorded as “no binding”. Regarding “TGTGGTTCGAGCTGGCGGTGCCCGGCTGAGTCGTACCGCTCGGGGCGGATGCCGAGGGGCGGCTCCGGGGGCCGGCGCGGAGGGGTGGCGCAAGGGGCGCGCCGGGAGCGCACGGAGGGCGATTGGTTCAGGCCAGTGGCGCCTGCGAGAGTCTTTGGTTCGACGGGGCGCCACCTGGTTAGAAGACTGGGAGTATGT (double strand) [prpM3p]”, the binding result in series [1] (setting [4]) is reported as “binds”.
